# According to PubChem BioAssay AID1347131 (National Center for Advancing Translational Sciences (NCATS), 2019):
# The campaign covered roughly 410,000 compounds. About 2,000 (0.49%) were called active. The inconclusive results got no clear call from the source; some entries with a clear call stand among them for comparison. Calls follow the shape of the full dose curve; tested in HEK293 reporter line. A potency beside an inconclusive call is a rough fit, not a confirmed value.
# Assay: qHTS Assay for Foot and Mouth Disease Virus Antivirals: Primary Screen against the MLPCN compound library; also: nearly all actives have a fitted effect of over 55% in size
# Settings: FMDV antiviral cell-based qHTS; series mostly up to 57.9 µM
# Potency is read from the fitted curve at half-maximal effect.
row,SMILES,Potency
1,COc1cc(C(=O)/C=C/c2cccnc2)c([N+](=O)[O-])cc1OC,"inconclusive: 14.1 µM [inhibitor, partial curve, poor fit]"
2,CC1CCN(CC(=O)c2ccc3c(c2)OCCO3)CC1,"inconclusive: 39.8 µM [inhibitor, single point]"
3,CCN1/C(=C/C=C/c2sc3ccccc3[n+]2CC)Sc2ccccc21,"inconclusive: 14.1 µM [inhibitor, partial curve, poor fit]"
4,Cc1ccccc1CN(C)C[C@H]1OCc2cnnn2CCCC(=O)N([C@@H](C)CO)C[C@@H]1C,"inconclusive: 1.78 µM [inhibitor, full curve]"
5,CCOc1cccc(C(=O)Nc2nnc(-c3ccco3)s2)c1,active: 11.2 µM
6,O=C(NCCC1=CCCCC1)c1ccc(F)cc1,active: 14.1 µM
7,O=C(NC(=S)Nc1ccc2oc(-c3cccnc3)nc2c1)c1cccc(Cl)c1,"inconclusive: 15.8 µM [inhibitor, partial curve]"
8,CCN1C=CC(=C2C(=O)c3ccccc3C2=O)C=C1,"inconclusive: 4.47 µM [inhibitor, full curve, poor fit]"
9,CCn1c(CCl)nc2cc(S(=O)(=O)N3CCOCC3)ccc21,"inconclusive: 28.2 µM [inhibitor, partial curve, poor fit]"
10,CCc1nn2c(=O)cc(COC(=O)c3cc(Cl)c(OC)c(OC)c3)nc2s1,"inconclusive: 3.55 µM [inhibitor, partial curve]"
11,Cc1cc(C)nc(N2N=C(C(F)(F)F)CC2=O)n1,"inconclusive: 2 µM [inhibitor, full curve]"
12,CC(=O)c1ccc(NC(=O)c2ccc(-c3nc(CSc4ccccc4)c(C)o3)cc2)cc1,inactive
13,CCCCc1c(-c2ccccc2)ncn1CCc1ccccc1OC,"inconclusive: 25.1 µM [inhibitor, partial curve, poor fit]"
14,CCCCN(C)CCN1C(=O)C2C(C(=O)Nc3ccc(Cl)cc3)C3C=CC2(O3)C1C(=O)NC1CCCCC1 (configuration not stated),"inconclusive: 12.6 µM [inhibitor, partial curve]"
15,COC(=O)c1cc(=O)n(Cc2ccc3c(c2)OCO3)c(=Nc2ccc(F)cc2)s1,"inconclusive: 12.6 µM [inhibitor, partial curve, poor fit]"
16,CNC(=O)C[C@H]1C(=O)N(c2ccc(OC)cc2)C[C@@H]1CSC,"inconclusive: 1.78 µM [inhibitor, partial curve, poor fit]"
17,CC(=O)c1ccc(NC(=O)CC23CC4CC(C2)CC(n2nnc(C)n2)(C4)C3)cc1,"inconclusive: 8.91 µM [inhibitor, partial curve, poor fit]"
18,COc1cc(NC(=O)CN(C)S(=O)(=O)c2ccc3nc(C)sc3c2)cc(OC)c1,"inconclusive: 8.91 µM [inhibitor, partial curve]"
19,CC(=O)Nc1ccc(S(=O)(=O)N2CCN(CC(O)COc3ccc4ccccc4c3)CC2)cc1 (configuration not stated),"inconclusive: 22.4 µM [inhibitor, single point]"

# 10 neighbouring compounds out of the list so far, for reference:
row,SMILES,Potency
8,CCN1C=CC(=C2C(=O)c3ccccc3C2=O)C=C1,"inconclusive: 4.47 µM [inhibitor, full curve, poor fit]"
9,CCn1c(CCl)nc2cc(S(=O)(=O)N3CCOCC3)ccc21,"inconclusive: 28.2 µM [inhibitor, partial curve, poor fit]"
10,CCc1nn2c(=O)cc(COC(=O)c3cc(Cl)c(OC)c(OC)c3)nc2s1,"inconclusive: 3.55 µM [inhibitor, partial curve]"
11,Cc1cc(C)nc(N2N=C(C(F)(F)F)CC2=O)n1,"inconclusive: 2 µM [inhibitor, full curve]"
12,CC(=O)c1ccc(NC(=O)c2ccc(-c3nc(CSc4ccccc4)c(C)o3)cc2)cc1,inactive
13,CCCCc1c(-c2ccccc2)ncn1CCc1ccccc1OC,"inconclusive: 25.1 µM [inhibitor, partial curve, poor fit]"
14,CCCCN(C)CCN1C(=O)C2C(C(=O)Nc3ccc(Cl)cc3)C3C=CC2(O3)C1C(=O)NC1CCCCC1 (configuration not stated),"inconclusive: 12.6 µM [inhibitor, partial curve]"
15,COC(=O)c1cc(=O)n(Cc2ccc3c(c2)OCO3)c(=Nc2ccc(F)cc2)s1,"inconclusive: 12.6 µM [inhibitor, partial curve, poor fit]"
16,CNC(=O)C[C@H]1C(=O)N(c2ccc(OC)cc2)C[C@@H]1CSC,"inconclusive: 1.78 µM [inhibitor, partial curve, poor fit]"
17,CC(=O)c1ccc(NC(=O)CC23CC4CC(C2)CC(n2nnc(C)n2)(C4)C3)cc1,"inconclusive: 8.91 µM [inhibitor, partial curve, poor fit]"

# (more compounds)

row,SMILES,Potency
1,CC1Cc2cc(S(=O)(=O)N3CCN(c4cccc(Cl)c4)CC3)ccc2N1C(=O)C1CC1 (configuration not stated),"inconclusive: 17.8 µM [inhibitor, partial curve]"
2,COc1ccc(C2=Nn3c(nnc3-c3ccccc3F)SC2)cc1OC1CCCC1,"inconclusive: 39.8 µM [inhibitor, single point]"
3,CCOc1ccc(C(=O)O/N=C(\N)c2ccccn2)cc1,"inconclusive: 10 µM [inhibitor, partial curve, poor fit]"
4,CC(=O)Nc1cccc(/C(C)=N/NC(=O)c2c(-c3ccccc3Cl)noc2C)c1,"inconclusive: 25.1 µM [inhibitor, partial curve, poor fit]"
5,CCOC(=O)c1c(C)n(C)c2ccc(OCC(O)Cn3c(C)nc4ccccc43)cc12 (configuration not stated),"inconclusive: 17.8 µM [inhibitor, partial curve, poor fit]"
6,CCCOc1cccc(C(=O)N(Cc2ccc(OC)c(OC)c2)C2CCS(=O)(=O)C2)c1 (configuration not stated),"inconclusive: 8.91 µM [inhibitor, partial curve]"
7,COc1ccc(C(=O)NCc2cc(C)nc3ccccc23)cc1,inactive
8,COc1ccc(CCNC(=O)c2cc3c(=O)n4ccccc4nc3n(CCN3CCOCC3)c2=N)cc1,"inconclusive: 12.6 µM [inhibitor, partial curve, poor fit]"
9,CCC(C)N1C(=O)/C(=C/c2ccc3c(c2)CCN3CCCCl)C(=O)NC1=S (configuration not stated),"inconclusive: 31.6 µM [inhibitor, partial curve, poor fit]"
10,OC1(c2cccc(C(F)(F)F)c2)CCN(c2ncnc3c2[nH]c2ccccc23)CC1,"inconclusive: 28.2 µM [inhibitor, partial curve, poor fit]"
11,COc1ccccc1NC(=O)C1=C(C)Nc2nc(SCc3ccccc3)nn2C1c1cccnc1 (configuration not stated),"inconclusive: 39.8 µM [inhibitor, single point]"
12,CCc1c(C)sc2c1CCN(C(=O)Nc1ccc(F)c(Cl)c1)C2c1ccc(F)cc1 (configuration not stated),"inconclusive: 39.8 µM [inhibitor, partial curve, poor fit]"
13,CCCCCCCCCn1c2c(c(=N)c3c1CCC3)CCC2,"inconclusive: 5.62 µM [inhibitor, partial curve, poor fit]"
14,Cc1noc(C)c1CSCC(=O)Nc1nc(-c2ccc(F)c(F)c2)cs1,"inconclusive: 17.8 µM [inhibitor, partial curve, poor fit]"
15,CC(C)C[C@H]1CN(CCCC[C@H]2CNC(=O)C(=O)N2CCC2CCCCC2)C(=O)C(=O)N1CCC1CCCCC1,"inconclusive: 35.5 µM [inhibitor, partial curve, poor fit]"
16,CC(C)NC(=O)C1CCN(C(=O)c2cc3sccc3n2Cc2ccc(Cl)cc2)CC1,"inconclusive: 15.8 µM [inhibitor, partial curve, poor fit]"
17,CCOc1ccc(Nc2c3c(nc4nncn24)CCC3)cc1,inactive
18,CCSC1(SCC)N=C(N)C2(C#N)C(c3ccc(F)cc3)C12C#N (configuration not stated),"inconclusive: 14.1 µM [inhibitor, partial curve, poor fit]"
